PubChem BioAssay AID504784 – Drosophila RNAi Screening Center – 2011
Test: 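Genome-wide knock-down for genes giving too much or too little stored lipid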 (primary screen). Cells: Drosophila Kc167 embryonic cells. Reagent: long dsRNA against Drosophila genes, about 250 ng dsRNA per well. Duration: 4 days. Conditions: cells fed 400 µM oleic acid bound to BSA. Read-out: 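Microscope images give a droplet-to-nucleus area ratio, taken as log and converted to a screen-wide B-score; higher values mean greater lipid storage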. Scale: droplet/nuclear area B-score: higher = more stored lipid (overstorage).
The deposit covers about 17,000 reagents; below is an unselected part of those with a known target gene and a result. 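Each column is one replicate's B-score; the combined score over replicates was not deposited, so single values may mislead.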 A plus sign joins genes that one reagent is predicted to hit. Not all columns of the deposit are shown.

| target gene | dsRNA | droplet/nuclear area B-score, replicate 1 | droplet/nuclear area B-score, replicate 2 |
| --- | --- | --- | --- |
| CG32820 + CG17450 + CG32819 | DRSC21803 | -0.531 | 1.75 |
| CG32820 + CG17450 + CG32819 | DRSC22812 | 0.345 | -1.91 |
| mei-9 (meiotic 9) | DRSC18792 | 0.141 | 1.45 |
| mago (mago nashi) | DRSC04703 | -0.748 | 0.112 |
| stretch (retired record) | DRSC14347 | 1.8 | -0.0759 |
| stretch (retired record) | DRSC14512 | 0.563 | 0.112 |
| stretch (retired record) | DRSC14541 | 0.192 | 4.05 |
| stretch (retired record) | DRSC14542 | -2.97 | -0.0416 |
| stretch (retired record) | DRSC14543 | -1.26 | -1.43 |
| stretch (retired record) | DRSC23038 | -0.248 | -0.705 |
| Mrp5 (Multidrug resistance protein 5) | DRSC15597 | -0.717 | -0.291 |
| Mrp5 (Multidrug resistance protein 5) | DRSC15598 | 1.2 | -0.59 |
| Idgf5 (Imaginal disc growth factor 5) | DRSC06919 | 1.2 | 0.552 |
| CG6996 | DRSC10758 | -0.101 | -0.396 |
| cN-IIIB (cytosolic 5'-nucleotidase IIIB) | DRSC04359 | 0.606 | 0.461 |
| TTLL4A (Tubulin tyrosine ligase-like 4A) | DRSC02528 | -0.0968 | 0.164 |
| CG10654 | DRSC09767 | 1.49 | 1.29 |
| ZnT86D (Zinc transporter 86D) | DRSC16091 | -0.308 | 1.54 |
| Stoml2 (Stomatin like 2) | DRSC04326 | 1.17 | 0.101 |
| CG31635 | DRSC02273 | -0.0772 | -0.216 |
| CG31635 | DRSC02274 | -1.25 | 0.462 |
| unc-13 | DRSC17192 | -1.75 | 0.379 |
| unc-13 | DRSC17193 | -1 | 0.247 |
| unc-13 | DRSC17223 | 2.23 | – |
| CG32213 + CG12519 + 825-Oak + 1 more | DRSC09615 | 0.413 | 3.77 |
| CG7196 (retired record) | DRSC01000 | -0.0745 | 1.78 |
| CG7196 (retired record) | DRSC03023 | -0.968 | -1.89 |
| Pfdn6 (Prefoldin 6) | DRSC10915 | 2.07 | -2.05 |
| CG8960 | DRSC08612 | 2.8 | 3.02 |
| Acat2 (Acetyl-CoA acetyltransferase 2) | DRSC08630 | 0.24 | -1.11 |
| CG33630 | DRSC14546 | -2.04 | -0.446 |
| CG30280 | DRSC21761 | -0.866 | 0.0133 |
| CG17821 | DRSC06696 | 0.0964 | -0.0023 |
| Naprt (Nicotinate phosphoribosyltransferase) | DRSC00630 | 0.0522 | 0.667 |
| dbf (doublefault) | DRSC02570 | 0.921 | 1.42 |
| Taf8 (TBP-associated factor 8) | DRSC20363 | -0.403 | -2.53 |
| GlcT (Glucosylceramide synthase) | DRSC04525 | -0.365 | 0.00793 |
| CG13587 | DRSC04223 | -1.98 | 1.88 |
| Stim (Stromal interaction molecule) | DRSC20158 | 0.553 | -0.113 |
| CG42286 (retired record) | DRSC14357 | -0.519 | -0.628 |
| gt (giant) | DRSC18782 | -0.048 | 1.07 |
| gt (giant) | DRSC23119 | 0.975 | 1.5 |
| brm (brahma) | DRSC11330 | 6.85 | 8.7 |
| CG17650 | DRSC00510 | -0.73 | -0.365 |
| Fam92 | DRSC02952 | -2.66 | 1.18 |
| Teh4 (tipE homolog 4) | DRSC08457 | 0.368 | 0.755 |
| baz (bazooka) | DRSC20309 | -0.421 | -0.0191 |
| ver (verrocchio) | DRSC10125 | -0.752 | -1.4 |
| ItgaPS4 (Integrin alphaPS4 subunit) | DRSC06630 | -0.118 | -1.41 |
| Itgbn (Integrin betanu subunit) | DRSC03493 | 0.248 | 0.134 |
| CG33966 | DRSC08256 | 0.804 | 0.00621 |
| CG34284 | DRSC14773 | 1.1 | -0.236 |
| NimC2 (Nimrod C2) | DRSC01881 | -0.107 | -0.148 |
| CG15478 | DRSC18057 | 0.369 | -0.0469 |
| CR33328 (retired record) | DRSC22954 | -0.0466 | -0.0187 |
| CG34384 | DRSC14855 | 0.408 | 2.78 |
| CG34384 | DRSC15444 | -0.517 | 0.239 |
| CG34384 | DRSC16575 | -0.319 | 0.0104 |
| CG11458 | DRSC11666 | -0.336 | -0.658 |
| CG2604 | DRSC12313 | 0.139 | 0.581 |
| CG5504 | DRSC04701 | -0.617 | 0.542 |
| Ufsp1 (UFM1 specific peptidase 1) | DRSC04958 | 0.822 | 1.39 |
| Polr3G (RNA polymerase III subunit G) | DRSC21511 | 1.59 | -0.765 |
| Hmx (H6-like-homeobox) | DRSC15884 | 0.982 | 1.69 |
| Hmx (H6-like-homeobox) | DRSC16706 | 0.061 | 1.01 |
| Hmx (H6-like-homeobox) | DRSC22799 | -0.423 | -1.97 |
| Sans (Scaffold protein containing ankyrin repeats and SAM domain) | DRSC06357 | 0.508 | 0.165 |
| Poxn (Pox neuro) | DRSC05589 | 0.541 | 0.097 |
| Poxn (Pox neuro) | DRSC07512 | 1.55 | 0.00163 |
| mRpL36 (mitochondrial ribosomal protein L36) | DRSC10337 | 1.12 | 2.24 |
| rdhB (retinol dehydrogenase B) | DRSC16190 | -0.00548 | 2.17 |
| chb (chromosome bows) | DRSC11469 | 1.24 | -1.4 |
| CG18581 | DRSC10324 | 0.439 | -0.78 |
| Cog8 (Component of oligomeric golgi complex 8) | DRSC02961 | 0.0391 | 0.145 |
| CG15040 | DRSC19616 | -0.162 | -0.549 |
| CG15040 | DRSC21482 | -0.358 | -0.679 |
| CG13868 | DRSC06427 | 0.0961 | -1.51 |
| Rab6 | DRSC03404 | 0.615 | -0.307 |
| Ate1 (Arginyltransferase 1) | DRSC05925 | 1 | 0.555 |
| CG7573 | DRSC10884 | 1.34 | 0.0283 |
| CG6481 | DRSC19995 | -0.373 | 1.09 |
| slmb (supernumerary limbs) | DRSC17056 | 0.269 | -0.686 |
| Caf1-105 (Chromatin assembly factor 1, p105 subunit) | DRSC06209 | 1.44 | 1.1 |

Part of the list above, reduced to “droplet/nuclear area B-score, replicate 2”:
Hmx (H6-like-homeobox) [DRSC16706]	1.01
Hmx (H6-like-homeobox) [DRSC22799]	-1.97
Sans (Scaffold protein containing ankyrin repeats and SAM domain) [DRSC06357]	0.165
Poxn (Pox neuro) [DRSC05589]	0.097
Poxn (Pox neuro) [DRSC07512]	0.00163
mRpL36 (mitochondrial ribosomal protein L36) [DRSC10337]	2.24
rdhB (retinol dehydrogenase B) [DRSC16190]	2.17
chb (chromosome bows) [DRSC11469]	-1.4
CG18581 [DRSC10324]	-0.78
Cog8 (Component of oligomeric golgi complex 8) [DRSC02961]	0.145
CG15040 [DRSC19616]	-0.549
CG15040 [DRSC21482]	-0.679
CG13868 [DRSC06427]	-1.51
